# Experimental data as given in US20170283486A1 (UNIVERSITY OF MARYLAND BALTIMORE, published 2017).
# Target: mAb N60-i3
# Test: cell-based or functional assay
binder,measurement,value
"inner domain immunogen ID2 (designed binder, engineered C65-C115 disulfide bond (HXBc2 numbering); 8 cysteines forming four disulfide bonds) VPVWKDADTTLFCASDAKAHETECHNVWATHACVPTDPNPQEIHLENVTENFNMWKNNMVEQMQEDVISLWDQCLQPGGAPKISFDPIPIHYCTPAGYVILKCNDKNFNGTGPCKNVSSVQCTHGIKPVVSSGGGNIKDNWRSELYKYKVVQIE",IC50 (read off the curve),~0.2 nM
